Measured values: publication doi:10.1101/2020.09.02.280198
Changes are numbered by the printed parent chain. These are yes or no findings as the source states them, for the method shown. In cells and extracts the contact can be indirect. Some entries that bind do so weakly or less than the wild type. Where a sequence is shown, tags or fusion partners need not be part of it.

Columns and labels:
Assay in all cases: co-IP
[1] = biological target: T1, FLAG-tagged dyskerin K467R (human) (UniProt O60832)
T1 sequence: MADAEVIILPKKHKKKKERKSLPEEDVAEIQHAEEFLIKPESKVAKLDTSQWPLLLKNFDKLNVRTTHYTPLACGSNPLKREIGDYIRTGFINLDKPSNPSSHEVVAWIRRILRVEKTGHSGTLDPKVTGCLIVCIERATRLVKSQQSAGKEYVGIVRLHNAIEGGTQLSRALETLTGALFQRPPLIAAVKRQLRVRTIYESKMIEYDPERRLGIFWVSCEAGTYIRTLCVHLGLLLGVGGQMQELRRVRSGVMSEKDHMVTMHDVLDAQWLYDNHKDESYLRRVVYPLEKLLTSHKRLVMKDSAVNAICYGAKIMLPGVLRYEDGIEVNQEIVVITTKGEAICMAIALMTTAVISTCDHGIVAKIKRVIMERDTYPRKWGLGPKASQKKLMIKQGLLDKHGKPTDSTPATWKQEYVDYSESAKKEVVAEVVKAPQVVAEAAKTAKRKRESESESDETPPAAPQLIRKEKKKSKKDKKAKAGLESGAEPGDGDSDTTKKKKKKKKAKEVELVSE

[2] = biological target: T2, FLAG-tagged wildtype dyskerin (human) (UniProt O60832)
T2 sequence: T1 sequence with R467K

[3] = biological target: T3, FLAG-tagged dyskerin A481X (human) (UniProt O60832)
T3 sequence: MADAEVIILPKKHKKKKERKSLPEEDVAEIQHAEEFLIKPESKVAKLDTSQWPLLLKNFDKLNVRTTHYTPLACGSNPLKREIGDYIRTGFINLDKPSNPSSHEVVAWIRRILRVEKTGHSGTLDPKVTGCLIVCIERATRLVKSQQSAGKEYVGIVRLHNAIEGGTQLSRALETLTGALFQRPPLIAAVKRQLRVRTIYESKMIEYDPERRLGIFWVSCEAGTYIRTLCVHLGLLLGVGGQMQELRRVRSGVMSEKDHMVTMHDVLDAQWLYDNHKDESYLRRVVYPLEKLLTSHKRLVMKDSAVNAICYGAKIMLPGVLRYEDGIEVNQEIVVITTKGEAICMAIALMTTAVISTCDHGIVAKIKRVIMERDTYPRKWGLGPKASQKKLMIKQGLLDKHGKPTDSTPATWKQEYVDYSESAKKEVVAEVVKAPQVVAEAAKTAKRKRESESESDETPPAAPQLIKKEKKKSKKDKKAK

[4] = biological target: T4, FLAG-tagged dyskerin K467/468R (human) (UniProt O60832)
T4 sequence: T1 sequence with K468R

[5] = biological target: T5, FLAG-tagged dyskerin K468R (human) (UniProt O60832)
T5 sequence: T1 sequence with R467K, K468R

[6] = biological target: T6, FLAG-tagged dyskerin K446X (human) (UniProt O60832)
T6 sequence: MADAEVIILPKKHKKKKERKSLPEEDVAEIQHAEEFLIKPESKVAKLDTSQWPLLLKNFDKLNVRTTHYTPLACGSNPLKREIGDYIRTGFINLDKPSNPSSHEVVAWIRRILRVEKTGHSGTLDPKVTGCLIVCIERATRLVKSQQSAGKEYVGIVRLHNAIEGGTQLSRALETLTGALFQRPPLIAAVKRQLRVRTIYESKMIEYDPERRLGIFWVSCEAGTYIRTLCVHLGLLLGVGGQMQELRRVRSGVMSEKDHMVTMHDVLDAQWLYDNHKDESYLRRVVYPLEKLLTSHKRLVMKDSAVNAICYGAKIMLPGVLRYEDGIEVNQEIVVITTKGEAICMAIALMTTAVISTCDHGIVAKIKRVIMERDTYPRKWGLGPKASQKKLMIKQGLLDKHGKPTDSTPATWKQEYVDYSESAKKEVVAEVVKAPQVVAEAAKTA

Measured: binding

B1: endogenous NHP2 (protein, UniProt Q9NX24 1-153)
chain: MTKIKADPDGPEAQAEACSGERTYQELLVNQNPIAQPLASRRLTRKLYKCIKKAVKQKQIRRGVKEVQKFVNKGEKGIMVLAGDTLPIEVYCHLPVMCEDRNLPYVYIPSKTDLGAAAGSKRPTCVIMVKPHEEYQEAYDECLEEVQSLPLPL
binds: all assays above

B2: endogenous NAF1 (protein, UniProt Q96HR8 1-494)
chain: MEVVEAAAAQLETLKFNGTDFGVGEGPAAPSPGSAPVPGTQPPLQSFEGSPDAGQTVEVKPAGEQPLQPVLNAVAAGTPAPQPQPPAESPACGDCVTSPGAAEPARAPDSLETSDSDSDSDSETDSDSSSSSSSSSSSSSSSSSSCISLPPVLSDGDDDLQIEKENKNFPLKTKDELLLNELPSVEELTIILPEDIELKPLGMVSSIIEQLVIIESMTNLPPVNEETVIFKSDRQAAGKIFEIFGPVAHPFYVLRFNSSDHIESKGIKIKETMYFAPSMKDFTQYIFTEKLKQDKGSDASWKNDQEPPPEALDFSDDEKEKEAKQRKKSQIQGRKKLKSEFNEPGEDFTEVHQNWNAHSSASEHAKGYRNREFTRGFSRARYPRSCHGRPPPQHFYNSEHMVSQETSGFPSQRQNNPIMPQYPFPLPVFDMHNFPLRPPPPPPPPPVNMGWATPNMAAHPLLNLPYSLPPPPPPPPLPPPPSSGDSNSHFGPYY
binds: all assays above
